Earlier results, collected in US11364242B2, “Treatment agents for inhibiting HIV and cancer in HIV infected patients” (UNIVERSITY OF MARYLAND, BALTIMORE, priority 2015, dated 2022).
For at least one compound, name, drawing or mass did not settle the structure.

Key:
[1] = system: R5 HIV; details: primary cells; cited from earlier work
[2] = system: CXCR4 (X4)-tropic HIV; details: primary cells; cited from earlier work

Structure (SMILES): CO[C@H]1C[C@@H]2CC[C@@H](C)[C@@](O)(O2)C(=O)C(=O)N2CCCC[C@H]2C(=O)O[C@H]([C@H](C)C[C@@H]2CC[C@@H](O)[C@H](OC)C2)CC(=O)[C@H](C)/C=C(\C)[C@@H](O)[C@@H](OC)C(=O)[C@H](C)C[C@H](C)/C=C/C=C/C=C/1C [Rapamycin]
- replication of R5 HIV [1]: potently inhibiting replication
- replication of X4 HIV [2]: but not
